Results from publication PMC8269334.
Results are given in words; binding and its absence hold for the method and conditions named. Binding seen in cells or lysates may run through a third protein. Some results given as binding are weak or reduced against the parent protein; the word gives no strength.

Sequences of proteins named here, by UniProt entry; tags and fusion partners are left off.
UniProt P06748: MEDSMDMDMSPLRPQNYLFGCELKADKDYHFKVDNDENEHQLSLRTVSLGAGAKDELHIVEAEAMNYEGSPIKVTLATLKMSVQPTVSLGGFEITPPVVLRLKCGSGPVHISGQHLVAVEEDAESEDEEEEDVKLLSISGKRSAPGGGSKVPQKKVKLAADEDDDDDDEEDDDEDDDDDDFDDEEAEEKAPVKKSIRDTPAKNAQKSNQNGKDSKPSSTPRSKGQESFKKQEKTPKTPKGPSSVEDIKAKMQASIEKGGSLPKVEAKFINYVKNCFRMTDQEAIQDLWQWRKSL

What was measured:
eGFP_NPMwt (human) = eGFP_NPMwt (human) (UniProt P06748); test: co-IP; GFP-Trap and RFP-Trap on lysates of HEK-293T cells co-transfected with an eGFP-tagged and an mRFP1-tagged construct; with or without 4 µM Selinexor for 2 h before the precipitation; co-precipitated proteins detected by immunoblotting
mRFP1_p53wt (human) = mRFP1_p53wt (human) (UniProt P04637); test: as above

binding (eGFP_NPMwt (human)): binds | binding (mRFP1_p53wt (human)): binds
B1: fibrillarin (endogenous, HEK-293T) (protein, UniProt P22087 1-321)
chain: MKPGFSPRGGGFGGRGGFGDRGGRGGRGGFGGGRGRGGGFRGRGRGGGGGGGGGGGGGRGGGGFHSGGNRGRGRGGKRGNQSGKNVMVEPHRHEGVFICRGKEDALVTKNLVPGESVYGEKRVSISEGDDKIEYRAWNPFRSKLAAAILGGVDQIHIKPGAKVLYLGAASGTTVSHVSDIVGPDGLVYAVEFSHRSGRDLINLAKKRTNIIPVIEDARHPHKYRMLIAMVDVIFADVAQPDQTRIVALNAHTFLRNGGHFVISIKANCIDSTASAEAVFASEVKKMQQENMKPQEQLTLEPYERDHAVVVGVYRPPPKVKN
